Reference: article PMC7822926
No constants are given. Whether binding was seen depends on the method and setting. For part of these data: Binding seen in cells or lysates may run through a third protein. Some results given as binding are weak or reduced against the parent protein; the word gives no strength. Tags and fused reporters may be left off the sequences shown.

T1: GFP-Emr1 (Schizosaccharomyces pombe) (UniProt Q4ZGE1)
T1 sequence: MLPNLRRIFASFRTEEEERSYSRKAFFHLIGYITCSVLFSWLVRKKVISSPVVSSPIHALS

T2: Mdm12-GST (Schizosaccharomyces pombe) (UniProt Q92377)
T2 sequence: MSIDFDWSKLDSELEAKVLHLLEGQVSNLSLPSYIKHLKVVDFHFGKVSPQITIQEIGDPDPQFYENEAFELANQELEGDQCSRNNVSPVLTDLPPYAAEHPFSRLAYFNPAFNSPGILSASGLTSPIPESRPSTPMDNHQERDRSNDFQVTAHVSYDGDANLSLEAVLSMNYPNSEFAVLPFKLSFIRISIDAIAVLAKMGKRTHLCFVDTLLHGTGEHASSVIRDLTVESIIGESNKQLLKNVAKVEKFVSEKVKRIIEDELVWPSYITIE

T3: Mdm34-GST (Schizosaccharomyces pombe) (UniProt Q9UUC9)
T3 sequence: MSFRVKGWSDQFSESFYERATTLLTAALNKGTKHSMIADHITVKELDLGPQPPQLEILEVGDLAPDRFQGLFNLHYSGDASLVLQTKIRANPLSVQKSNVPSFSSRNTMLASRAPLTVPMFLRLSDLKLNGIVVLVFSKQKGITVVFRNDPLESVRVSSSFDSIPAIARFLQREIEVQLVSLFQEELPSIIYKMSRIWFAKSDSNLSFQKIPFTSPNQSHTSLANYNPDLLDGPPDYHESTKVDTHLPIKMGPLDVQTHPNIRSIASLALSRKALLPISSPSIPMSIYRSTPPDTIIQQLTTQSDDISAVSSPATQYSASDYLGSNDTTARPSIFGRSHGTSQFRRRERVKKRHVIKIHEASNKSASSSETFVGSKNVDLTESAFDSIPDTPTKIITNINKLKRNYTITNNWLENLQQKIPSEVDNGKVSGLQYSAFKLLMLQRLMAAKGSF

B1: Mdm12-tdTomato (protein, UniProt Q92377 1-273)
chain: MSIDFDWSKLDSELEAKVLHLLEGQVSNLSLPSYIKHLKVVDFHFGKVSPQITIQEIGDPDPQFYENEAFELANQELEGDQCSRNNVSPVLTDLPPYAAEHPFSRLAYFNPAFNSPGILSASGLTSPIPESRPSTPMDNHQERDRSNDFQVTAHVSYDGDANLSLEAVLSMNYPNSEFAVLPFKLSFIRISIDAIAVLAKMGKRTHLCFVDTLLHGTGEHASSVIRDLTVESIIGESNKQLLKNVAKVEKFVSEKVKRIIEDELVWPSYITIE
B2: His-GFP-Emr1 (protein, UniProt Q4ZGE1 1-61)
chain: MLPNLRRIFASFRTEEEERSYSRKAFFHLIGYITCSVLFSWLVRKKVISSPVVSSPIHALS

Legend:
[1] = biological target: T1, GFP-Emr1 (Schizosaccharomyces pombe); assay: co-IP; S. pombe cell lysates (TBS lysis buffer, 0.3% Triton X-100, protease inhibitors) incubated 1 h at 4 °C with Dynabeads Protein G bound with anti-GFP antibody; washed with TBS 0.1% Triton X-100; western blot with anti-GFP and anti-tdTomato
[2] = biological target: T2, Mdm12-GST (Schizosaccharomyces pombe); assay: pull-down; GST proteins bound to Glutathione Sepharose 4B incubated with equal amount of His-GFP-Emr1 eluted from nickel resins in 1X TBS plus 0.1% Triton X-100, 2 h at 4 °C; washed with TBS, 0.1% Triton X-100, 10 mM imidazole; western blot with anti-His and anti-GST; both purified
[3] = biological target: T3, Mdm34-GST (Schizosaccharomyces pombe); assay: as above

| Binder | binding [1] | binding [2] | binding [3] |
| --- | --- | --- | --- |
| B1 | binds |  |  |
| B2 |  | binds | binds |
